Data on 1 substance can be found in patent US6949349.

These are yes or no findings as the source states them, for the method shown. Binding can be weak; no strength is given.

Test [1] concerns the target T1, recombinant human IGFBP-1 (human, UniProt P08833 26-259).
T1 sequence (looked up): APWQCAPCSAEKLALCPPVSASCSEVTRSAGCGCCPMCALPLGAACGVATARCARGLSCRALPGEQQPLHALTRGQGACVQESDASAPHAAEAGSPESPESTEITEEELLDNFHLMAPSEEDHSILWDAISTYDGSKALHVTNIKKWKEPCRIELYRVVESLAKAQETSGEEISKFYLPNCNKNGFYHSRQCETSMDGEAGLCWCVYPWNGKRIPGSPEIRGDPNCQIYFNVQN
Briefly: competitive displacement of 125I-IGF-I from plate-coated IGFBP. Background: Loss of bound radioactivity is the signal in a displacement assay; it reports binding, not function.

In test [2] the target is T1, recombinant human IGFBP-1. Briefly: competitive displacement of 125I-IGF-I from plate-coated rhIGFBP-1.

For the substance (Leu^24, Ala^31)hIGF-I (ligand), the binding result in test [1] and in test [2] was “binds” in each case.
